PubChem BioAssay AID720505 – Drosophila RNAi Screening Center, 2013

Assay: 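Genes needed for store-operated calcium entry in fly cells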 (primary screen)
Cell system: Drosophila S2R+ cells
Reagents: long dsRNA against Drosophila genes
Challenge: thapsigargin (2 µM) in calcium-free buffer to empty internal stores, then 2 mM calcium added back
Read-out: 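Stores emptied by 2 µM thapsigargin without calcium, then 2 mM calcium re-added; fluo-4 fluorescence followed by FLIPR in 384-well plates, per-well averaged endpoint, raw; two screen passes, some wells retested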
Scale: calcium signal: higher = more calcium entry after store depletion
Rule for the call: 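Knock-downs counted as hits when calcium entry dropped relative to STIM1 positive and Rho1 negative controls present on each plate; roughly 1500 genes called, with reductions of differing size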
Meaning of the calls: active = called as lowering calcium entry; inactive = not called
The screen tested about 20,000 reagents; shown is an unselected part of those with a known target gene and a result. Over the whole deposit, about 2,100 (10%) were called active. 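Raw plate signals without normalisation; calls rest on control-based scores that were not deposited; replicate 2 separates called from uncalled poorly.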 No sequences are given here. Not stated in the record: the amount of reagent, the time to read-out.

For Dro (Drosocin) [DRSC07406] the deposit lists calcium signal, replicate 1 = 124; calcium signal, replicate 2 = 158; inactive. CG13385 [DRSC02259] gave calcium signal, replicate 1 = 182; calcium signal, replicate 2 = 132; inactive. Silencing of alpha-Man-Ib (alpha-Mannosidase class I b) [DRSC14418] gave: calcium signal, replicate 1 = 71.5; calcium signal, replicate 2 = 88.9; active. Against Lim3 [DRSC02475], the entry reads calcium signal, replicate 1 = 202; calcium signal, replicate 2 = 116; inactive. Depletion of Lim3 [DRSC03363] resulted in: calcium signal, replicate 1 = 154; calcium signal, replicate 2 = 90.7; inactive. Against Lim3 [DRSC22183], the entry reads calcium signal, replicate 1 = 133; calcium signal, replicate 2 = 238; inactive.

Knock-down of Lim3 [DRSC22650] gave: calcium signal, replicate 1 = 70.9; calcium signal, replicate 2 = 138; inactive. Against Lim3 [DRSC23034], the values are calcium signal, replicate 1 = 96.5; calcium signal, replicate 2 = 141; inactive. Against Hmbs (Hydroxymethylbilane synthase) [DRSC08632] the deposit lists calcium signal, replicate 1 = 134; calcium signal, replicate 2 = 171; inactive. For CG6739 [DRSC02987], the values are calcium signal, replicate 1 = 71.5; calcium signal, replicate 2 = 155; active. Knock-down of CG33263 [DRSC10108] came out at: calcium signal, replicate 1 = 89.6; calcium signal, replicate 2 = 78; inactive. After knock-down of rhi (rhino) [DRSC05996], the screen gave calcium signal, replicate 1 = 146; calcium signal, replicate 2 = 146; inactive.

With knock-down of Ir56d (Ionotropic receptor 56d) [DRSC06590], the screen gave calcium signal, replicate 1 = 157; calcium signal, replicate 2 = 163; inactive. Depletion of Pp2B-14D (Protein phosphatase 2B at 14D) [DRSC20270] came out at: calcium signal, replicate 1 = 56.4; calcium signal, replicate 2 = 127; active. After knock-down of Pp2B-14D (Protein phosphatase 2B at 14D) [DRSC23315], the screen gave calcium signal, replicate 1 = 117; calcium signal, replicate 2 = 161; inactive. Knock-down of Tengl1 (Testis EndoG-Like 1) [DRSC00481] gave: calcium signal, replicate 1 = 167; calcium signal, replicate 2 = 139; inactive. After knock-down of Dsk (Drosulfakinin) [DRSC12347], the record shows calcium signal, replicate 1 = 120; calcium signal, replicate 2 = 155; inactive. For CG31347 [DRSC21582], the values are calcium signal, replicate 1 = 153; calcium signal, replicate 2 = 85.8; inactive.

For TwdlO (TweedleO) [DRSC16043] the deposit lists calcium signal, replicate 1 = 66.7; calcium signal, replicate 2 = 87; active. For CG7322 [DRSC20036], the entry reads calcium signal, replicate 1 = 62.8; calcium signal, replicate 2 = 116; active. CG7742 [DRSC03066] showed calcium signal, replicate 1 = 110; calcium signal, replicate 2 = 255; inactive. ACOX1 (acyl-CoA oxidase 1) [DRSC05941] showed calcium signal, replicate 1 = 131; calcium signal, replicate 2 = 85; inactive. Silencing of polybromo [DRSC14307] gave: calcium signal, replicate 1 = 196; calcium signal, replicate 2 = 228; inactive. Against CG18628 [DRSC10328] the deposit lists calcium signal, replicate 1 = 72.7; calcium signal, replicate 2 = 85.8; inactive.

Silencing of Hph (HIF prolyl hydroxylase) [DRSC12164] came out at: calcium signal, replicate 1 = 88.8; calcium signal, replicate 2 = 142; inactive. With knock-down of Hph (HIF prolyl hydroxylase) [DRSC12251], the record shows calcium signal, replicate 1 = 103; calcium signal, replicate 2 = 76.6; inactive. After knock-down of Hph (HIF prolyl hydroxylase) [DRSC21876] the results were calcium signal, replicate 1 = 79.6; calcium signal, replicate 2 = 153; inactive. Knock-down of alrm (astrocytic leucine-rich repeat molecule) [DRSC14436] gave: calcium signal, replicate 1 = 300; calcium signal, replicate 2 = 162; inactive. Silencing of CG31924 [DRSC00689] came out at: calcium signal, replicate 1 = 180; calcium signal, replicate 2 = 137; inactive. Silencing of CG6805 [DRSC07011] resulted in: calcium signal, replicate 1 = 35.4; calcium signal, replicate 2 = 84; active.

With knock-down of PGRP-LA (Peptidoglycan recognition protein LA) [DRSC10327], the record shows calcium signal, replicate 1 = 103; calcium signal, replicate 2 = 107; inactive. PGRP-LA (Peptidoglycan recognition protein LA) [DRSC10414] scored calcium signal, replicate 1 = 81.6; calcium signal, replicate 2 = 88.8; inactive. For aralar1 [DRSC13987], the values are inactive. Silencing of aralar1 [DRSC16901] came out at: calcium signal, replicate 1 = 113; calcium signal, replicate 2 = 136; inactive. With knock-down of Idi (Isopentenyl-diphosphate delta isomerase) [DRSC15918], the record shows calcium signal, replicate 1 = 184; calcium signal, replicate 2 = 360; inactive.
